Measured values as given in PubChem BioAssay AID540276 (National Center for Advancing Translational Sciences (NCATS), 2011).
Values joined by “and” are separate entries in the source; they are usually repeats but may differ in a detail not shown here. Equal entries are not always repeated. Screen size: about 300,000 compounds; about 5,400 (1.8%) were called active. The inconclusive results got no clear call from the source; some entries with a clear call stand among them for comparison. Calls come from the whole dose curve; tested in HEK293 cells. Potencies of inconclusive entries are doubtful fits and often do not repeat.
% is set by controls: 0 for no effect and ±100 for the full control effect; potency is the fitted concentration of half-maximal effect.

Assay: qHTS for inhibitors of binding or entry into cells for Marburg Virus
Conditions: Marburg virus pseudotyped entry inhibition, cell reporter; activity change, negative = inhibition: at 37.8 µM (top of the series) unless noted
With Cc1ccc(S(=O)(=O)N/N=C/c2cc(Br)ccc2O)cc1 the Potency was inconclusive: 6.31 µM [inhibitor, single point].
For Cc1n[nH]c(C)c1CN(C)C(=O)c1cc(COc2ccc(F)c(F)c2)on1, the “activity change, negative = inhibition” value was inactive: 4.52%.
With CC(Sc1ncccn1)C(=O)Nc1ccc2c(c1)OCCO2 (stereo unspecified) the Potency was inconclusive: 1.12 µM [activator, partial curve, poor fit].
In the case of COCC(C)n1c(C)cc(C(=O)COC(=O)c2oc3ccccc3c2C)c1C (stereo unspecified), the Potency is reported as inconclusive: 22.4 µM [inhibitor, single point].
With CC(=O)Nc1ccc(C(=O)c2ccccc2)cc1 the “activity change, negative = inhibition” value was inactive: 0%.
In the case of C=CCn1c(SCC(=O)Nc2cccc3ccccc23)nc(O)c(CC)c1=O, the Potency is reported as inconclusive: 1.83 µM [inhibitor, partial curve].
In the case of CCn1cc(C(=O)NCc2ccccc2OC)c(=O)c2cc(S(=O)(=O)N3CCCCCC3)ccc21, the “activity change, negative = inhibition” value is reported as inactive: -3.6% [at 46.1 µM].
With C/C(=N\NC(=O)c1ccc(Cn2cc(Br)cn2)o1)c1cccc(NC(=O)C(C)(C)C)c1 the Potency was inconclusive: 20.6 µM [inhibitor, partial curve, poor fit].
With C/C(=N\NC(=O)c1ccccn1)C12CC3CC(CC(C3)C1)C2 the “activity change, negative = inhibition” value was inactive: 6.34%.
For O=C(Nn1cnnc1)c1ccc(OC(F)(F)C(F)C(F)(F)F)cc1 (stereo unspecified), the “activity change, negative = inhibition” value was inactive: 17.6% [at 46.1 µM].
With CSc1nsc(SCC(=O)Nc2cccc(NC(C)=O)c2)n1 the Potency was inconclusive: 14.1 µM [activator, partial curve, poor fit].
For CC(=O)Nc1cccc(-c2cnc3ccccc3n2)c1, the Potency was inconclusive: 3.55 µM [activator, partial curve, poor fit].
For COc1ccccc1NS(=O)(=O)c1cc(NC(=O)c2cc[n+]([O-])cc2)ccc1N1CCCC1, the “activity change, negative = inhibition” value was inactive: -22.2% [at 46.1 µM].
In the case of O=C(COC(=O)c1cnc(Cl)c(Cl)c1)NCc1ccco1, the Potency is reported as inconclusive: 22.4 µM [inhibitor, single point].
With CC(C)c1ccc(O)c(NC(=O)c2cccnc2)c1 the “activity change, negative = inhibition” value was inactive: 1.55%.
With O=C(NC(Cc1ccccc1)C(=O)O)/C(=C\c1cccc([N+](=O)[O-])c1)NC(=O)c1ccco1 (stereo unspecified) the Potency was inconclusive: 1 µM [inhibitor, partial curve, poor fit].
With CC(=C/C(=O)O)/C=C/c1ccc([N+](=O)[O-])cc1 the Potency was inconclusive: 14.1 µM [activator, partial curve, poor fit].
In the case of Cc1ccc(CNC(=O)c2cnccn2)cc1, the Potency is reported as inconclusive: 4.47 µM [activator, partial curve, poor fit].
In the case of C[C@@H]1CN(C2CCN(C(=O)COc3ccccc3)CC2)C[C@H](C)O1, the “activity change, negative = inhibition” value is reported as inactive: 7.41%.
In the case of COc1ccccc1C(c1nnnn1C(C)(C)C)N1CCN(Cc2ccccc2)CC1 (stereo unspecified), the Potency is reported as inconclusive: 35.5 µM [inhibitor, single point].
In the case of CC(=O)Nc1ccc(S(=O)(=O)Nc2cc(C)cn(Cc3ccc(C)cc3)c2=O)cc1, the “activity change, negative = inhibition” value is reported as inactive: -2.78% [at 46.1 µM].
In the case of C/C(=N/NC(=O)CNC(=O)COc1cccc(C)c1)c1ccco1, the Potency is reported as inconclusive: 1.26 µM [inhibitor, single point].
In the case of NC1CCN(O)C1=O (stereo unspecified), the Potency is reported as inconclusive: 7.94 µM [inhibitor, partial curve].
In the case of CC(=O)Nc1ccc(NC(=O)c2c(C)nn(-c3ccccc3)c2-n2cccc2)cc1, the “activity change, negative = inhibition” value is reported as inactive: -22.3% [at 46.1 µM].
With CCSc1oc(-c2ccco2)nc1S(=O)(=O)c1ccc(F)cc1 the Potency was inconclusive: 9.2 µM [inhibitor, partial curve, poor fit].
With COc1ccc(-c2cc(OC(=O)c3cccc(C)c3)c3c(C)oc(C)c3c(=O)c2)cc1 the “activity change, negative = inhibition” value was inactive: -9% [at 46.1 µM].
With CCOP(=O)(OCC)c1nc(-c2cccc3ccccc23)oc1NCc1ccccc1 the Potency was inconclusive: 29.1 µM [inhibitor, single point].
In the case of Cc1nc2ccc(S(=O)(=O)Nc3ccc(-c4nc5cccnc5s4)cc3)cc2s1, the “activity change, negative = inhibition” value is reported as inactive: 33.6%.
In the case of CN(C(=O)c1ccc(COc2ccccc2Br)o1)c1ccccc1, the “activity change, negative = inhibition” value is reported as inactive: -15.9%.
With CCOC(=O)/C=C1\SCC(=O)N1CC(=O)Nc1ccccc1OC(F)F the “activity change, negative = inhibition” value was inactive: -5.38%.
For Cc1ccc(C)c(S(=O)(=O)N2CCCOC2CNC(=O)C(=O)NCCN2CCOCC2)c1 (stereo unspecified), the “activity change, negative = inhibition” value was inactive: 9.1%.
With COC(=O)c1cccc(S(=O)(=O)N2CCC(n3nnc4cc(F)ccc43)CC2)c1 the Potency was inconclusive: 35.5 µM [inhibitor, single point].
In the case of COc1ccc(O)c(/C=N/Nc2nc(Nc3ccccc3)nc(-n3nc(C)cc3C)n2)c1, the Potency is reported as inconclusive: 22.4 µM [inhibitor, partial curve, poor fit].
For CC1CCc2cc(F)ccc2N1C(=O)CCl (stereo unspecified), the Potency was inconclusive: 8.91 µM [inhibitor, partial curve, poor fit].
For CC(C)(C)C(=O)Nc1ccc(Sc2ccc([N+](=O)[O-])cc2)cc1, the Potency was inconclusive: 29.1 µM [inhibitor, single point].
In the case of Cc1cccc(Cc2c(C)nc3nc(SCC(=O)NCc4ccc(F)cc4)nn3c2C)c1, the “activity change, negative = inhibition” value is reported as inactive: -7.55% [at 46.1 µM].
For Cc1cc(C(=O)CN2C(=O)c3ccccc3S2(=O)=O)c(C)n1CC1CCCO1 (stereo unspecified), the Potency was active: 0.58 µM.
For O=C(NC(NC(=S)Nc1ccc(Cl)cc1)C(Cl)(Cl)Cl)c1ccco1 (stereo unspecified), the Potency was inconclusive: 35.5 µM [inhibitor, single point].
With C[C@]12O[C@@H]1[C@@H](O)C(Br)=C(CO)[C@@H]2O the Potency was inconclusive: 1.68 µM [activator, single point].
For COc1ccc(C2C(C(=O)c3cccs3)=C(O)C(=O)N2c2cccc(C)n2)cc1 (stereo unspecified), the “activity change, negative = inhibition” value was inactive: 15.1% [at 46.1 µM].
For CCSc1nnc(NC(=O)c2cnccn2)s1, the Potency was inconclusive: 0.651 µM [activator, full curve, poor fit].
In the case of C[C@@]12CC(=O)NC1N(C(=O)c1ccccc1)C(c1ccccc1OC(=O)c1ccccc1)C2 (stereo partly specified), the Potency is reported as inconclusive: 1.26 µM [inhibitor, full curve].
In the case of C=C(CCN1C=C(C(=O)OCC)C(c2ccccc2)NC1=O)c1ccc(Cl)cc1 (stereo unspecified), the “activity change, negative = inhibition” value is reported as inactive: 14.3% [at 14.2 µM].
In the case of CSc1ccccc1NC(=O)CN(C)CC(=O)c1[nH]c(C)c(C(C)=O)c1C, the “activity change, negative = inhibition” value is reported as inactive: -1.11%.
For Clc1cccc(N2CCNCC2)n1, the Potency was inconclusive: 5.62 µM [activator, partial curve, poor fit].
With O=C(CNC(=O)c1ccc(Cl)cc1Cl)OCN1C(=O)c2ccccc2C1=O the Potency was inconclusive: 6.31 µM [inhibitor, single point].
For N#Cc1ccccc1Sc1ccccc1C(=O)OCC(=O)NC1CCCCC1, the Potency was inconclusive: 35.5 µM [activator, partial curve, poor fit].
For COc1ccc2nc(NC(=O)CSc3nnnn3C3CCCCC3)sc2c1, the “activity change, negative = inhibition” value was inactive: 2.61%.
With CCOC(=O)/C(=C\c1ccc(Cl)cc1)c1nc2sc(C)c(C)c2c(=O)[nH]1 the Potency was inconclusive: 11.2 µM [inhibitor, partial curve, poor fit].
In the case of O=C(NCc1cccc(Cl)c1)c1cccc(OC2CCN(C(=O)C3CC3)CC2)c1, the Potency is reported as inconclusive: 7.94 µM [inhibitor, partial curve].
With CCOCCCNCc1cc(Br)ccc1OCc1ccccc1 the Potency was inconclusive: 29.1 µM [inhibitor, single point].
For O=C(COC(=O)c1ccccc1)Nc1ccccc1Br, the “activity change, negative = inhibition” value was inactive: 6.68% [at 46.1 µM].
In the case of CCOC(=O)Nc1cc(=O)c2ccccc2o1, the Potency is reported as inconclusive: 6.51 µM [inhibitor, single point].
With COc1ccc(CCNC(=O)c2oc3ccc(S(=O)(=O)N4CCOCC4)cc3c2C)cc1OC the Potency was inconclusive: 20 µM [inhibitor, partial curve, poor fit].
For O=C1CN(Cc2cc(=O)oc3cc4c(cc23)CCC4)CCN1, the Potency was inconclusive: 20 µM [activator, single point].
For CS(=O)(=O)NCc1nnc(SCc2ccccc2C(F)(F)F)o1, the “activity change, negative = inhibition” value was inactive: -23.9%.
For CCOc1cc(CNCc2ccccc2)ccc1OCC(=O)NC1CCCCC1, the Potency was inconclusive: 6.31 µM [inhibitor, partial curve, poor fit].
With CS(=O)(=O)N(CCc1ccccc1)CC(=O)NCc1ccc(Cl)cc1 the Potency was inconclusive: 35.5 µM [inhibitor, single point].
With COC(=O)c1c(NC(=O)c2nc(SC)ncc2Cl)sc2c1CCCC2 the “activity change, negative = inhibition” value was inactive: 23.6% [at 46.1 µM].
With CC(C)C(NC(=O)C1CCCCC1)C(=O)NC1CCCC(C)C1C (stereo unspecified) the Potency was inconclusive: 6.31 µM [inhibitor, single point].
For CSc1ncc(Cl)c(C(=O)Nc2nnc(SC)s2)n1, the “activity change, negative = inhibition” value was inactive: -0.873%.
For CCOC(=O)N1CCN(S(=O)(=O)c2ccc(C)c(C(=O)NC3CCCCC3)c2)CC1, the “activity change, negative = inhibition” value was inactive: 10.5%.
With COc1ccc(-n2nnc(C(=O)Nc3ccccc3F)c2N)cc1 the Potency was inconclusive: 1 µM [activator, full curve, poor fit].
In the case of O=C(CNC(=O)c1cc(S(=O)(=O)N2CCCCC2)ccc1N1CCOCC1)Nc1ccc(F)c(F)c1, the “activity change, negative = inhibition” value is reported as inactive: 4.59%.
With Cc1ccc(S(=O)(=O)Nc2cccc(-c3ccc4nnc(C)n4n3)c2)s1 the Potency was inconclusive: 10 µM [inhibitor, partial curve, poor fit].
With COCCCNc1nc(-c2ccc(Cl)cc2)nc2ccccc12 the Potency was active: 11.2 µM.
In the case of O=C(N/N=C/c1ccsc1)c1ccc2ccccc2n1, the Potency is reported as inconclusive: 3.16 µM [activator, single point].
In the case of COC(=O)C(C)n1cnc2c(nnn2Cc2ccc(Cl)cc2)c1=O (stereo unspecified), the Potency is reported as inconclusive: 0.316 µM [activator, partial curve, poor fit].
With CCCc1nc2sc3c(c2c(=O)n1NC(=O)CCCl)CCCC3 the Potency was inconclusive: 1.12 µM [inhibitor, full curve, poor fit].
With CC1(OC(=O)c2cnc3ccccc3n2)C(=O)C=C2C=C3CCCN3C=C2C1=O (stereo unspecified) the Potency was “inactive”.
For Cc1nn(-c2ccccc2)c2sc(C(=O)N3CCc4ccccc4C3)cc12, the Potency was “inactive and inconclusive: 8.2 µM [inhibitor, partial curve]”.
